Test results taken from paper PMC10731658 (Chemical Research in Toxicology, 2023).

Tested on: HepG2 cells
Assay: Colorimetric MTT cell viability assay, 24 h
Conditions: relative to K048 IC50 of 30.60 mmol/L

SMILES: O/N=C/c1cc[n+](CCCC[n+]2ccc(/C=N/O)cc2)cc1 [K074, 1,1′-(butane-1,4-diyl)bis(4((hydroxyimino)methyl)pyridine-1-ium) dibromide]
- fold lower IC50 than K048: 1.13 fold
